PubChem BioAssay AID2685 (National Center for Advancing Translational Sciences (NCATS), 2010)
The list shows a part of the results. The main result of the screen is listed elsewhere. These columns were measured beside it and carry no call. Most of these compounds were active or inconclusive in the main read-out, so they are no random draw. Potencies come from curve fits of mixed quality, noted in brackets. Where a SMILES comes first, the peptide text is derived from it. [ ]: non-standard residue; d: D form. The star is where a group is joined. Hyp = O=C(O)[CH]1C[CH](O)CN1; Cbz = O=C(OCc1ccccc1)*; OBn = c1ccc(CO*)cc1

Test: qHTS Assay for Lipid Storage Modulators in Drosophila S3 Cells;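 on cell number change: cells counted by Cell Tracker Red CMTPX staining in the red channel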
Settings: BODIPY lipid droplet fluorescence, 18-24 h; for cell number change: measured here: cell count max response, cells fed with added oleic acid
Method in brief: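 Drosophila S3 cells loaded with oleic acid (400 uM, as added) and compounds at several concentrations; lipid droplets imaged by 488-nm laser-scanning cytometry, 500–530 nm intensity and object ratio to cell channel. Percent activity normalized to 20 uM Triacsin C.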

[1] = measured here: lipid fluorescence (Fed channel) AC50, cells fed with added oleic acid
[2] = measured here: cell number channel AC50, cells fed with added oleic acid

SMILES	cell number change	AC50 [1]	AC50 [2]
CC1CN(C2CCN(S(=O)(=O)c3ccc4ccccc4c3)CC2)CC(C)O1 (stereo not given)	-25.8%	146 nM [falling, full curve, poor fit]	–
COc1ccc(NS(=O)(=O)c2ccc(NC(=O)c3ccc(N(C)S(C)(=O)=O)cc3)cc2)cc1	-9.92%	10300 nM [falling, partial curve]	–
CCCCOc1ccc(C(=O)NN2C(=O)NC3(CCCCC3)C2=O)cc1OC	50%	–	7310 nM [rising, partial curve]
Cc1nc(SC(C)C(=O)NC2CCCC2)c2ccccc2n1 (stereo not given)	-2.07%	6510 nM [rising, single point]	–
Cc1ccc(C(C)C)c(Oc2nnnn2-c2ccccc2)c1	-4.37%	9200 nM [rising, partial curve]	–
CN(CC(=O)NC(=O)NC1CCCCC1)Cc1ccccc1	-5.58%	–	65.1 nM [rising, full curve, poor fit]
CCN(CC)CCCNC(=O)c1[nH]c(C)c(C(=O)NC2CCCCC2)c1C	–	20600 nM [falling, partial curve]	–
CCC1(CC)NC(=O)N(CC(=O)OCn2nnc3ccccc3c2=O)C1=O	-30%	–	461 nM [falling, partial curve, poor fit]
Cc1[nH]c(C)c(S(=O)(=O)Nc2cccc(Cl)c2C)c1C(=O)N1CCCCC1	-2.75%	8200 nM [falling, partial curve, poor fit]	–
CCOc1cc(C(=O)NC(CC(=O)O)c2ccc(OC3CCCC3)cc2)cc(OCC)c1OCC (stereo not given)	24.2%	580 nM [falling, full curve]	–
O=C(COc1ccc(-c2ccccc2)cc1)NNC(=O)NC1CCCCC1	21.4%	29100 nM [rising, single point]	–
CCN(C(=O)COC(=O)C1CCN(S(=O)(=O)c2ccc(C)c(C)c2)CC1)C1CCS(=O)(=O)C1 (stereo not given)	-11.1%	5800 nM [falling, full curve, poor fit]	–
COc1ccc(NC(=O)C2CCC(N3C(=O)C4CCCCC4C3=O)CC2)cc1 (stereo not given)	–	2310 nM [rising, full curve]	–
Cc1cc(/C=C2/NC(=O)NC2=O)c(C)n1-c1cccnc1	13.8%	8200 nM [rising, partial curve]	–
CC1(C)CC(=O)C2=C(C1)OC1=C(C(=O)CC(C)(C)C1)C2c1ccccc1	-3.34%	820 nM [falling, full curve, poor fit]	–
Cc1ccc(S(=O)(=O)c2nc(Nc3ccccc3N3CCOCC3)sc2Cl)cc1	-7.81%	130 nM [falling, full curve, poor fit]	–
COc1ccc(CCNC(=O)Cn2cnc3scc(-c4ccccc4)c3c2=O)cc1OC	-12%	820 nM [falling, full curve]	–
COc1ccc(OC)c(NC(=O)c2cccc3c2C(=O)N(C2CCCCC2)C3)c1	-12.6%	–	–
COc1ccc(C2/C=C\CN(S(=O)(=O)c3ccc(-c4ccccc4)cc3)CC(=O)N2Cc2ccc(F)cc2)cc1 (stereo not given)	16.5%	1030 nM [rising, full curve, poor fit]	–
CC(=O)Nc1nc(-c2ccc(Cl)cc2)ns1	21.6%	–	2060 nM [rising, single point]

SMILES	cell number change	AC50 [1]	AC50 [2]
O=C(Nc1ccc2c(c1)OCCO2)c1ccccc1F	-5.05%	461 nM [rising, single point]	1300 nM [rising, partial curve]
Cn1c(=O)c2ncn(CC(=O)NC3CCCCCC3)c2n(C)c1=O	21.9%	18400 nM [rising, partial curve, poor fit]	–
COc1ccc2oc(C(=O)NCCN3CCOCC3)c(C)c2c1OC	19.5%	651 nM [rising, single point]	–
Cc1cccc(C(=O)NCCc2nnc(SCC(=O)Nc3nc(C)cs3)n2C)c1	–	6510 nM [falling, single point]	–
CC1CCN(S(=O)(=O)c2ccc3c(c2)c(=O)c(C(=O)N2CCCCC2)cn3C)CC1	-9.74%	–	–
COc1ccc(NC(=O)CSc2nnc3c4c(nc(-c5ccccc5)n23)CC(C)(C)OC4)cc1	-1.25%	14600 nM [falling, single point]	–
O=C(NCC(=O)N1CC(O)CC1C(=O)N1CC(O)CC1C(=O)OCc1ccccc1)OCc1ccccc1 (stereo not drawn) (Cbz-Gly-[Hyp]-[Hyp]-OBn; configuration not given here)	-35.4%	51.7 nM [falling, full curve, poor fit]	1840 nM [falling, partial curve]
CCC(NS(=O)(=O)c1ccc(C)cc1)C(=O)N1CCOCCOCCOCCOCC1 (stereo not given)	-10.5%	35500 nM [rising, single point]	–
COC(=O)C1C2CCC(C2)C1C(=O)OCC(=O)c1ccc(C)cc1 (stereo not given)	2.16%	–	–
O=C(NCCN1CCCC(O)C1)c1cc(COc2ccc(F)cc2Cl)on1 (stereo not given)	11.3%	–	2060 nM [rising, single point]
Cc1cc(=O)oc(C)c1C(=O)NCCCN1C(C)CCCC1C (stereo not given)	-15.9%	–	–
CSc1nsc(SCC(=O)Nc2ccccc2C(=O)O)n1	-5.13%	116 nM [falling, single point]	–
c1ccc(-n2nnnc2SCc2cccc3nsnc23)cc1	26.8%	6510 nM [rising, partial curve]	–
O=C(CN1CCCCC1)NCCNC(=O)CN1CCCCC1	-36.8%	20600 nM [falling, single point]	29100 nM [falling, single point]
Cc1sc2ncn(CC(=O)NCCc3ccccc3)c(=O)c2c1C	37.2%	–	–
Cc1ccc(C(=O)/C=C/Nc2cccc([N+](=O)[O-])c2)o1	86.5%	3660 nM [rising, single point]	16400 nM [rising, partial curve]
Cc1cccc(C(=O)Oc2ccc(/C=N/NC(=O)c3cc(O)cc(O)c3)cc2)c1	-31.7%	–	23100 nM [falling, single point]
CCc1ccc(OCCOCC(O)CN2CCN(Cc3ccc(Cl)cc3)CC2)cc1 (stereo not given)	-5.63%	23100 nM [falling, partial curve]	–
COc1ccc(NC(=O)Nc2c(C)n(C)n(-c3ccccc3)c2=O)cc1OC	15.3%	–	–
CCOC(=O)Cc1cc(OC)c(OC)cc1Cc1cc(OC)c(OC)cc1CC(=O)OCC	-24%	–	25.9 nM [falling, full curve, poor fit]

SMILES	cell number change	AC50 [1]	AC50 [2]
CN(C)CCCn1c(SCC(=O)N2CC(=O)Nc3ccccc32)nc2ccccc2c1=O	-19%	92 nM [rising, partial curve, poor fit]	–
N#Cc1ccc(CSc2nnc(-c3ccncc3)o2)cc1	-7.45%	6510 nM [rising, partial curve, poor fit]	–
CCOc1ccc(Cc2onc3c2C(=O)CCC3)cc1OCC	47%	–	–
CS(=O)(=O)N(CC(=O)Nc1cccc([N+](=O)[O-])c1)c1ccccc1	92.4%	25900 nM [rising, single point]	29100 nM [rising, single point]
CCN(CC)C(=O)C1CCCN(Cc2ccc(OC)c(C)c2C)C1 (stereo not given)	-126%	23100 nM [falling, partial curve]	20600 nM [falling, partial curve]
CCOc1cccc(C2C(C(=O)c3ccco3)=C(O)C(=O)N2c2nnc(C)s2)c1 (stereo not given)	0.493%	2060 nM [falling, partial curve, poor fit]	–
COc1ccc(S(=O)(=O)Nc2ccccc2Cl)cc1NC(C)=O	1.69%	130 nM [falling, full curve, poor fit]	6510 nM [falling, single point]
O=C1CCCN1CCCNC(=S)Nc1ccc(Cl)cc1Cl	9.63%	–	–
COc1ccccc1Oc1coc2cc(OCC(N)=O)ccc2c1=O	16.2%	206 nM [falling, single point]	–
O=c1c2ccccc2cnn1Cc1n[nH]c(=S)n1C1CC2CCC1C2 (stereo not given)	20.3%	32.6 nM [rising, full curve]	51.7 nM [rising, full curve, poor fit]
O=C(CN1C(=O)c2ccccc2C1=O)OCc1nc2ccsc2c(=O)[nH]1	-10.7%	29100 nM [rising, single point]	–
O=S(=O)(c1ccccc1)[C@@]1(c2ccc(Br)cc2)C[C@@H]2ON=C(c3ccccc3)[C@@H]2C1	-4.55%	164 nM [falling, full curve, poor fit]	–
CCc1cc(=O)oc2cc(C)cc(OC(=O)c3ccco3)c12	-4.43%	2310 nM [falling, partial curve]	–
O=C(CSc1ccccn1)Nc1ccc2ccccc2c1	25%	20600 nM [rising, partial curve]	–
Nn1c(Cc2ccccc2)n[nH]c1=S	-2.22%	116 nM [falling, full curve, poor fit]	–
CN(C(=O)Cn1cc(C(F)(F)F)cc(Cl)c1=O)C1CCS(=O)(=O)C1 (stereo not given)	-1.57%	18400 nM [falling, single point]	–
O=[N+]([O-])c1ccc(F)cc1OCc1cccc(S(=O)(=O)N2CCOCC2)c1	24.4%	1460 nM [rising, full curve]	651 nM [rising, full curve]
NC(=O)C1Cc2ccccc2CN1S(=O)(=O)c1cccs1 (stereo not given)	-52.4%	1030 nM [falling, full curve]	920 nM [falling, full curve]

Random excerpt: three entries already listed, in no set order.
SMILES	cell number change	AC50 [1]	AC50 [2]
O=C(CN1C(=O)c2ccccc2C1=O)OCc1nc2ccsc2c(=O)[nH]1	-10.7%	29100 nM [rising, single point]	–
NC(=O)C1Cc2ccccc2CN1S(=O)(=O)c1cccs1 (stereo not given)	-52.4%	1030 nM [falling, full curve]	920 nM [falling, full curve]
CCOc1ccc(Cc2onc3c2C(=O)CCC3)cc1OCC	47%	–	–
